Test system: human tumors
Test: Ex vivo analysis of tumor fluorescence of resected specimens (NIR imaging, hand-held spectrometer)
Type: in vivo
From the text: Following in vivo imaging, the patients then underwent a standard-of-care surgical resection of the tumor. Once removed from the patient, the specimen was examined, opened, biopsied and analyzed ex vivo (FIG. 2a). Every case was photo-documented both by brightfield imaging and NIR imaging. […] Then, the hand held spectrometer was used to semi-quantitate tissue fluorescence. Each tumor had 4 measurements at four perpendicular locations and the center of the tumor (total of 20 measurements/tumor). Mean fluorescence in the human tumors was 53,304±4193 au in 25 out of 27 masses (93%) (FIG. 2b). We conjectured that the center of the tumor might be less fluorescent than the periphery due to necrosis or, conversely, that the center of the tumor might be more fluorescent than the periphery due to increased ICG retention. We found neither to be true. The fluorescence from the tumors was remarkably homogeneous throughout the tumor. We believe this reflects “bleed over” of the fluorescent signal from different areas of the tumor surface. […] The background signal was measured from the patients' skin, muscles (latissmus dorsi, serratus anterior, intercostal), pericardium, normal lung, lymph nodes, adipose tissues, nerves (intercostal), airway and thymus whenever safely possible (FIG. 2b). […]

For `CC1(C)C(/C=C/C=C/C=C/C=C2\N(CCCCS(=O)(=O)[O-])c3ccc4ccccc4c3C2(C)C)=[N+](CCCCS(=O)(=O)[O-])c2ccc3ccccc3c21.[Na+]` [ICG, indocyanine green], the “correlation between vascularity (microvessel density) and tumor fluorescence” value (anti-CD31, human tumors) was “no correlation” and the “correlation between tumor cell density and fluorescence” value (human tumors) was “no correlation”.

Reference: patent US20150030542A1, “METHODS FOR MEDICAL IMAGING” (priority 2013, published 2015)
